Data source: PubChem BioAssay AID504764 (Drosophila RNAi Screening Center, 2011)

- Assay: 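Genome-wide screen for regulators of Notch-driven gene expression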 (primary screen)
- System: Drosophila Kc167 cells
- Knock-down reagent: long dsRNA against Drosophila genes
- Timing: about 5 days (4 days dsRNA, then 24 h after transfection)
- Challenge: transfection of constitutively active membrane-tethered Notch lacking the extracellular domain, read 24 h later
- Detection: 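Light from a Notch-responsive E(spl)m3 luciferase reporter under active Notch, with control-promoter and no-Notch reporter wells to normalise; raw counts from paired wells a and b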
- Reading the numbers: induced reporter light, run 1, well a and induced reporter light, run 1, well b: higher = more light from the Notch target reporter with active Notch; control promoter light, run 1, well a and control promoter light, run 1, well b: higher = more light from the viral control promoter (cell number, transfection, viability); uninduced reporter light, run 1, well a: higher = more light from the Notch target reporter without active Notch
- Hit rule: 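Hit if the duplicate-averaged log2 ratio of induced to control-promoter light gives a plate-wise z beyond ±2, or induced to uninduced beyond ±1.8; weak-control or discordant-duplicate wells dropped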
- Calls: active = modifier hit (raised or lowered Notch signal); inactive = not a hit
The screen tested about 22,000 reagents; this is a random part of those with a known target gene and a result. Over the whole deposit, 403 (1.9%) got an active call. 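Unnormalised raw counts per well; ratio z-scores behind the hit calls and whether each hit raises or lowers signal are not deposited.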 Unmarked entries are inactive. Reagent sequences are not shown. Not given: the amount of reagent.

For La (La autoantigen-like) [DRSC03358], the entry reads induced reporter light, run 1, well a = 18130; induced reporter light, run 1, well b = 18755; control promoter light, run 1, well a = 28065; control promoter light, run 1, well b = 18925; uninduced reporter light, run 1, well a = 1755.
With knock-down of Prx6c (Peroxiredoxin 6c) [DRSC06080], the record shows induced reporter light, run 1, well a = 1.95e5; induced reporter light, run 1, well b = 1.64e5; control promoter light, run 1, well a = 2.61e5; control promoter light, run 1, well b = 2.72e5; uninduced reporter light, run 1, well a = 16735.
With knock-down of CG3902 [DRSC10387], the record shows induced reporter light, run 1, well a = 1.66e5; induced reporter light, run 1, well b = 1.74e5; control promoter light, run 1, well a = 2.22e5; control promoter light, run 1, well b = 1.62e5; uninduced reporter light, run 1, well a = 12095.
Knock-down of knon (knotted onions) [DRSC07049] resulted in: induced reporter light, run 1, well a = 1.55e5; induced reporter light, run 1, well b = 1.19e5; control promoter light, run 1, well a = 1.39e5; control promoter light, run 1, well b = 1.48e5; uninduced reporter light, run 1, well a = 12915.
Knock-down of su(r) (suppressor of rudimentary) [DRSC18705] gave: induced reporter light, run 1, well a = 1.85e5; induced reporter light, run 1, well b = 1.55e5; control promoter light, run 1, well a = 2.63e5; control promoter light, run 1, well b = 2.25e5; uninduced reporter light, run 1, well a = 11755.
Der-1 (Derlin-1) [DRSC00301] showed induced reporter light, run 1, well a = 1.83e5; induced reporter light, run 1, well b = 1.74e5; control promoter light, run 1, well a = 2.13e5; control promoter light, run 1, well b = 1.92e5; uninduced reporter light, run 1, well a = 16242.

Ordered by “induced reporter light, run 1, well a” (ascending): some entries from above
Der-1 (Derlin-1) [DRSC00301]: induced reporter light, run 1, well a = 1.83e5; induced reporter light, run 1, well b = 1.74e5; control promoter light, run 1, well a = 2.13e5; control promoter light, run 1, well b = 1.92e5; uninduced reporter light, run 1, well a = 16242
su(r) (suppressor of rudimentary) [DRSC18705]: induced reporter light, run 1, well a = 1.85e5; induced reporter light, run 1, well b = 1.55e5; control promoter light, run 1, well a = 2.63e5; control promoter light, run 1, well b = 2.25e5; uninduced reporter light, run 1, well a = 11755

The results go on.
After knock-down of CG11771 [DRSC14379], the screen gave induced reporter light, run 1, well a = 1.48e5; induced reporter light, run 1, well b = 1.90e5; control promoter light, run 1, well a = 2.34e5; control promoter light, run 1, well b = 1.90e5; uninduced reporter light, run 1, well a = 14205.
Knock-down of pk (prickle) [DRSC06178] came out at: induced reporter light, run 1, well a = 2.10e5 (active); induced reporter light, run 1, well b = 1.94e5; control promoter light, run 1, well a = 2.79e5; control promoter light, run 1, well b = 2.67e5; uninduced reporter light, run 1, well a = 25130.
pk (prickle) [DRSC07664] showed induced reporter light, run 1, well a = 2.03e5; induced reporter light, run 1, well b = 2.54e5; control promoter light, run 1, well a = 3.01e5; control promoter light, run 1, well b = 2.53e5; uninduced reporter light, run 1, well a = 19210.
Amt (Ammonium transporter) [DRSC16055] scored induced reporter light, run 1, well a = 2.21e5; induced reporter light, run 1, well b = 1.89e5; control promoter light, run 1, well a = 1.86e5; control promoter light, run 1, well b = 1.93e5; uninduced reporter light, run 1, well a = 16110.
For CG6833 [DRSC10721], the values are induced reporter light, run 1, well a = 78965; induced reporter light, run 1, well b = 85525; control promoter light, run 1, well a = 41870; control promoter light, run 1, well b = 65145; uninduced reporter light, run 1, well a = 8295.
Against CG2772 [DRSC00530], the values are induced reporter light, run 1, well a = 2.35e5; induced reporter light, run 1, well b = 1.85e5; control promoter light, run 1, well a = 2.07e5; control promoter light, run 1, well b = 2.18e5; uninduced reporter light, run 1, well a = 12230.
